This test is described as follows: qHTS Assay for Lipid Storage Modulators in Drosophila S3 Cells.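 For cell number change: cells counted by Cell Tracker Red CMTPX staining in the red channel.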 The following applies: BODIPY lipid droplet fluorescence, 18-24 h; for cell number change: measured here: cell count max response, cells fed with added oleic acid. The procedure, abridged: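 Drosophila S3 cells loaded with oleic acid (400 uM, as added) and compounds at several concentrations; lipid droplets imaged by 488-nm laser-scanning cytometry, 500–530 nm intensity and object ratio to cell channel. Percent activity normalized to 20 uM Triacsin C.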
On the technique in general: Quantitative high-throughput screening tests each substance at several concentrations.

The mark [1] stands for this setting: measured here: lipid fluorescence (Fed channel) AC50, cells fed with added oleic acid.
Setting [2] is: measured here: cell number channel AC50, cells fed with added oleic acid.

In general, AC50 refers to the concentration giving half of the maximal activity seen.

The list shows a part of the results. The main result of the screen is listed elsewhere. These columns were measured beside it and carry no call. Most of these compounds were active or inconclusive in the main read-out, so they are no random draw. Words in brackets tell the shape of the fitted curve; partial curves, single points and poor fits give uncertain potencies.

As for `O=C(C(=O)N1CCOCC1)c1cn(CC(=O)N2CCc3ccccc3C2)c2ccccc12`, the cell number change is -3.95%. In addition, under setting [1], the AC50 is 6.51 µM [falling, single point].

In the case of `COc1ccc(NC(=S)N2CCC(NC(=O)c3cccc(F)c3)CC2)cc1`, the AC50 under setting [1] is 0.0651 µM [rising, partial curve, poor fit].

As for `CCCC(=O)N1CCN(c2ccc(NC(=O)c3ccc([N+](=O)[O-])o3)cc2)CC1`, the cell number change is -33.9%. Also, the AC50 under setting [2] is 2.59 µM [rising, single point]. Also, the AC50 under setting [1] is 20.6 µM [falling, partial curve, poor fit].

`CC1(C)Cc2cccc(OCC(=O)Nc3ccc(OCC(N)=O)cc3)c2O1`: the cell number change came to 2.77%. Also, the AC50 under setting [1] is 0.146 µM [falling, full curve, poor fit].

Regarding `Cc1ccc(OCC(=O)NCCCNC(=O)c2ccco2)cc1C`, the cell number change came to 10%. In addition, the AC50 under setting [1] was 0.651 µM [falling, full curve, poor fit].

Consider `CC1=C(C#N)C(=O)N(C2CCS(=O)(=O)C2)C(=O)/C1=C\c1ccco1` (stereo not given), for which the cell number change is -4.76%.

In the case of `O=C(O)C1(c2ccccc2)CCN(S(=O)(=O)c2ccc(Cl)cc2)CC1`, the cell number change is -21.9%. For the same molecule, under setting [1], the AC50 is 6.51 µM [falling, partial curve, poor fit].

In the case of `CCCCn1c(CN(C)Cc2ccccc2)nc2c1c(=O)n(C)c(=O)n2C`, the cell number change is -66.2%. Moreover, under setting [2], the AC50 was 29.1 µM [falling, single point]. Besides, the AC50 under setting [1] was 29.1 µM [falling, single point].

In the case of `COc1cccc(NC(=O)CCNC(=O)Cn2ccc3ccccc3c2=O)c1`, the AC50 reads like this: under setting [2], 2.06 µM [falling, single point]; under setting [1], 1.84 µM [falling, partial curve].

`Cc1ccc(-c2csc(N(CC3CCCO3)C(=O)c3ccco3)n2)cc1` (stereo not given): the cell number change came to 9.55%. The AC50 under setting [1] is 2.06 µM [rising, partial curve].

With `O=C(Nc1cccc(S(=O)(=O)N2CCOCC2)c1)c1c2c(nc3ccccc13)CCC2`, the cell number change was determined as 1.55%. For the same molecule, the AC50 under setting [1] is 29.1 µM [rising, single point].

As for `c1ccc(COc2ccc(OCCN3CCCCC3)cc2)cc1`, the cell number change stood at 66.7%. Besides, the half-maximal activity concentration (AC50) under setting [2] was 2.59 µM [falling, single point].

For the molecule `CCN(CC)S(=O)(=O)c1cccc(-c2cn3cc(C)ccc3n2)c1`, the cell number change came out at 37.7%. Besides, under setting [2], the AC50 is 4.61 µM [rising, full curve].

For the molecule `C=CCNC(=O)C(=O)Nc1ccc2c(c1)N(S(=O)(=O)c1cccs1)CCC2`, the cell number change is 55.9%. Besides, the AC50 under setting [2] is 3.66 µM [rising, full curve].

On to `CCOC(=O)C1CCN(C(=O)CN2C(=O)C(C(C)C)Oc3ccccc32)CC1` (stereo not given), for which the cell number change was 3.91%.

For `O=C(NCc1cccnc1)c1cccc(S(=O)(=O)Nc2ccc(F)cc2)c1`, the cell number change was found to be 58.5%. Under setting [2], the half-maximal activity concentration (AC50) is 2.59 µM [rising, full curve].

For `COc1ccc(C(=O)Nc2ccnn2C2CCN(C(=O)C3CCOC3)CC2)cc1` (stereo not given), the cell number change was -21.3%. For the same molecule, under setting [2], the AC50 is 0.92 µM [falling, full curve, poor fit]. Besides, the AC50 under setting [1] was 0.164 µM [falling, full curve].

As for `CC(=O)Nc1sc2c(c1C(c1ccccn1)N1CCN(C)CC1)CCCC2` (stereo not given), the cell number change was found to be 0.113%.

Take `COc1ccc(S(=O)(=O)NCCCn2ccnc2)cc1C(C)(C)C`: the cell number change worked out at 15%. For the same molecule, the AC50 under setting [1] is 29.1 µM [falling, single point].

Consider `Cn1nnc(NC(=O)c2ccccc2F)n1`, for which the cell number change is -4.79%. Under setting [1], the AC50 was 32.6 µM [falling, single point].

As for `CSc1ncccc1C(=O)OCn1nnc2ccccc2c1=O`, the cell number change came to 8.51%. Also, under setting [2], the AC50 was 0.651 µM [rising, single point].

Take `COc1ccc(Cn2c(SC)nc3ccccc32)cc1[N+](=O)[O-]`: the cell number change was 142%. Moreover, the AC50 under setting [2] was 29.1 µM [rising, single point]. The AC50 under setting [1] was 29.1 µM [rising, partial curve, poor fit].

Take `CN(C)/C=C/c1onc(-c2ccccc2Cl)c1C#N`: the cell number change was -45%. The AC50 under setting [2] was 11.6 µM [falling, partial curve, poor fit]. Under setting [1], the AC50 was 25.9 µM [falling, single point].

Turning to `Cc1ccc(NC(=O)C(NS(=O)(=O)c2cccc3nsnc23)C(C)C)nc1` (stereo not given), the cell number change is -16.3%. Besides, the AC50 under setting [2] is 0.13 µM [falling, full curve, poor fit]. For the same molecule, the AC50 under setting [1] is 0.651 µM [falling, full curve, poor fit].

Turning to `Cc1c(CCOC(=O)C23CC4CC(CC(C)(C4)C2)C3)sc[n+]1Cc1ccccc1`, the cell number change is -36.2%. In addition, under setting [2], the AC50 was 6.51 µM [falling, partial curve]. Also, the AC50 under setting [1] is 6.51 µM [falling, full curve].

On to `CC(/C=C/c1cccc([N+](=O)[O-])c1)=N/NC(=O)c1cccnc1`, for which the cell number change was -33%. Moreover, under setting [2], the AC50 was 29.1 µM [falling, single point].

Turning to `NS(=O)(=O)c1cccc(NC(=O)COC(=O)CN2C(=O)c3ccccc3C2=O)c1`, the cell number change came out at 11.3%. In addition, the AC50 under setting [1] is 18.4 µM [rising, partial curve].

Consider `Cc1coc2cc3oc(=O)c(Cc4ccccc4)c(C)c3cc12`, for which the cell number change was found to be 3%. Besides, the AC50 under setting [1] was 0.184 µM [rising, full curve, poor fit].

Consider `OCC[C@@H]1C[C@@H](O)[C@H](O)[C@]2(CCCCO2)O1`, for which the cell number change worked out at 22.9%. Besides, the half-maximal activity concentration (AC50) under setting [2] was 2.91 µM [rising, full curve, poor fit].

`Cc1ccc(S(=O)(=O)N2CCCCC2)cc1NC(=O)C1CC(=O)N(Cc2ccco2)C1` (stereo not given): the cell number change was -2.28%. Also, under setting [2], the AC50 was 6.51 µM [rising, single point].

Take `C#CC(C)(C)NC(=S)NC1CC2C=CC1C2` (stereo not given): the cell number change is -21.1%. Also, the AC50 under setting [1] is 29.1 µM [falling, single point].

For the molecule `COc1ccc2c(c1)C(NC(C)=O)C(=O)N2CCc1ccccc1` (stereo not given), the cell number change worked out at 8.11%. The AC50 under setting [1] was 0.82 µM [falling, single point].

With `CC(C)N=C(NS(=O)(=O)c1ccccc1)C(Cl)(Cl)Cl`, the cell number change is -31.6%. Besides, the AC50 under setting [2] is 20.6 µM [falling, partial curve, poor fit]. In addition, the AC50 under setting [1] was 6.51 µM [rising, single point].

Consider `CC(C)c1nc(SCC(=O)NC2CCCC2)c2ccccc2n1`, for which the cell number change is -32.5%. For the same molecule, the AC50 under setting [2] was 23.1 µM [falling, single point].

`CC(C)(C)c1ccc(-c2noc(CCC(=O)N3CCOCC3)n2)cc1`: the cell number change was -68.7%. Further, the AC50 under setting [2] is 16.4 µM [falling, partial curve]. Moreover, the AC50 under setting [1] was 16.4 µM [falling, partial curve, poor fit].

(Values after PubChem BioAssay AID2685 (National Center for Advancing Translational Sciences (NCATS), 2010).)
